What all share (assay): odorant receptor activation (CRE luciferase / Renilla) (fold of no-odor wells); higher = more activation
What all share (conditions): 100 µM

In experiment [1] the test system is OR2AG2 Y28C/R54P/R299G clone 1486.
In experiment [2] the test system is OR2AJ1 M1V clone 1448.
In experiment [3] the test system is OR2AK2 V188M clone 1415.
Experiment [4] has as its system OR2AP1 clone 1256.
Experiment [5] deals with OR2AT4 clone 1522.
Experiment [6] relates to OR2B11 clone 1418.
The subject of experiment [7] is OR2B2 clone 1333.
The test system of experiment [8] is OR2B2 clone 1544.
Experiment [9] relates to OR2B3 clone 1063.
Experiment [10] concerns OR2B6 clone 1436.
Experiment [11] deals with OR2B8 Indel clone 1076.
In experiment [12] the test system is OR2C1 C149W clone 1282.
In experiment [13] the test system is OR2C1 G16S/C149W/R229H clone 1408.
Experiment [14] concerns OR2C1 P58S/C149W clone 1409.
In experiment [15] the test system is OR2C1 clone 1406.
Experiment [16] concerns OR2C1 clone 1407.
Experiment [17] relates to OR2C3 T20A/P68S/L289V clone 1454.
In experiment [18] the test system is OR2D2 clone 1235.
For experiment [19], the system named is OR2D3 L66I clone 1381.
Experiment [20] concerns OR2F1 clone 1082.

The values below come from the odorant receptor screen of Mainland et al. (2015).

Where “and” joins values, the source holds several entries; their conditions need not be identical. Equal values may be shown once. The list shows a part of the results. Single wells; the ratio to wells without odorant was worked out here, and repeats agree poorly.

Take `CCCCCC(=O)O` [caproic acid]: the odorant receptor activation in [1] was 0.708; in experiment [2], 0.121; in experiment [3], 0.234; in experiment [4], 0.917; in experiment [5], 1.16; in experiment [6], 0.273. Besides, the odorant receptor activation in experiment [7] stood at 0.896; in [8], 0.896; in [9], 0.985; in experiment [10] it was 0.209; in experiment [11] it was 0.97; in experiment [12], 0.81. In addition, the odorant receptor activation in experiment [13] was 0.334; in experiment [14], 0.28; in experiment [15] it was 0.378; in experiment [16], 0.299; in [17], 0.873; in experiment [18], 0.733. The odorant receptor activation in [19] was found to be 0.282; in experiment [20], 1.23.
Regarding `CCCCCCCCOC(C)=O` [octyl acetate], the odorant receptor activation in experiment [1] was 0.977; in [2], 0.843; in experiment [3], 0.769; in experiment [4], 0.946; in experiment [5], 0.968; in [6], 0.961. Moreover, the odorant receptor activation came out at 1.32 in [7]; 1.15 in experiment [8]; 0.893 in [9]; 0.801 in experiment [10]; 0.857 in [11]; 1.18 in experiment [12]. Moreover, the odorant receptor activation was 0.889 in experiment [13]; 0.849 in [14]; 1 in experiment [15]; 1.08 in experiment [16]; 0.963 in experiment [17]; 0.994 in experiment [18]. Besides, the odorant receptor activation worked out at 0.969 in [19] and 0.79 in [20].
For the compound `C=CCSCC=C` [diallyl sulfide], the odorant receptor activation in experiment [1] came out at 1.39; in experiment [2], 1.04; in experiment [3] it was 1.11; in experiment [4], 0.903; in experiment [5], 1.34; in experiment [6] it was 0.914. For the same compound, the odorant receptor activation in [7] is 1.15; in [8], 1.59; in experiment [9] it was 0.895; in experiment [10], 1.45; in [11], 0.912; in [12], 1.06. For the same compound, the odorant receptor activation in [13] is 0.958; in experiment [14], 0.942; in [15] it was 0.779; in experiment [16], 1.02; in experiment [17] it was 0.813; in [18] it was 0.983. Moreover, the odorant receptor activation in experiment [19] turned out to be 1.15; in experiment [20] it was 1.19.
Regarding `CC(C)C=O` [isobutyraldehyde], the odorant receptor activation in experiment [1] is 0.92 and 1.02; in [2] it was 0.882; in experiment [3], 0.722; in experiment [4] it was 1.07 and 0.729; in [5], 0.973 and 1.03; in experiment [6], 0.815. The odorant receptor activation was 1.09 and 0.75 in [7]; 0.927 and 1.06 in [8]; 0.76 in experiment [9]; 0.841 in experiment [10]; 0.952 in [11]; 0.9 and 0.993 in [12]. Besides, the odorant receptor activation was determined as 1.01 in experiment [13]; 0.841 in experiment [14]; 0.793 in [15]; 0.855 in experiment [16]; 0.713 in [17]; 0.979 in [18]. For the same compound, the odorant receptor activation amounted to 0.712 in experiment [19] and 8.18 in experiment [20].
As to `CC=Cc1ccc(O)c(OC)c1` [isoeugenol], the odorant receptor activation in experiment [1] is 0.897 and 2.14; in experiment [2] it was 1.54; in [3], 1.49; in experiment [4], 0.812 and 1.33; in [5] it was 1.4 and 3.52; in experiment [6], 1.28. Moreover, the odorant receptor activation is 1.14 and 1.28 in experiment [7]; 0.834 and 2.24 in experiment [8]; 1.28 in [9]; 1.23 in experiment [10]; 0.99 in experiment [11]; 0.803 and 1.08 in experiment [12]. In addition, the odorant receptor activation worked out at 1.54 in [13]; 1.43 in experiment [14]; 1.62 in experiment [15]; 1.24 in experiment [16]; 5.64 in experiment [17]; 4.74 in experiment [18]. Besides, the figures for the odorant receptor activation in [19] and in experiment [20] were 1.1 and 1.35, respectively.
In the case of `CCCCCCOC(=O)CCC` [hexyl butyrate], the odorant receptor activation in experiment [1] is 0.784 and 0.872; in [2], 0.962; in experiment [3] it was 0.758; in [4], 1.45 and 0.645; in experiment [5], 1.07 and 1.26; in experiment [6], 0.749. Further, the odorant receptor activation in experiment [7] is 1.14 and 0.825; in experiment [8], 0.881 and 0.808; in experiment [9], 0.58; in experiment [10], 0.826; in experiment [11] it was 0.67; in experiment [12], 1.12 and 0.964. The odorant receptor activation in [13] is 0.937; in experiment [14], 0.814; in experiment [15], 0.845; in experiment [16], 0.812; in experiment [17], 0.976; in [18] it was 0.568. In addition, the odorant receptor activation is 0.681 in experiment [19] and 0.999 in experiment [20].
For `CC(C)C(=O)O` [isobutyric acid], the odorant receptor activation was 0.815 and 0.95 in experiment [1]; 0.771 in experiment [2]; 0.781 in [3]; 0.915 and 0.705 in experiment [4]; 1.23 and 0.808 in experiment [5]; 0.858 in experiment [6]. The odorant receptor activation in [7] is 1.04 and 0.832; in experiment [8] it was 1.07 and 0.711; in [9], 0.752; in experiment [10], 0.646; in [11], 0.624; in experiment [12] it was 1.06 and 1.12. Further, the odorant receptor activation in [13] stood at 0.793; in experiment [14], 0.839; in [15], 0.867; in [16], 0.692; in experiment [17], 0.708; in experiment [18], 1.11. Besides, the odorant receptor activation was 0.75 in experiment [19] and 0.94 in experiment [20].
With `CC12CCC(C1)C(C)(C)C2=O` (stereo not given) [fenchone], the odorant receptor activation in [1] amounted to 1.08; in experiment [2], 0.904; in [3], 1.06; in [4], 0.978; in experiment [5], 1.41; in experiment [6] it was 0.952. The odorant receptor activation in experiment [7] is 1.03; in experiment [8], 1.21; in experiment [9] it was 0.983; in [10], 1.06; in [11] it was 0.769; in experiment [12], 1.28. Moreover, the odorant receptor activation in experiment [13] was 0.912; in experiment [14] it was 0.793; in [15] it was 0.785; in experiment [16], 1.1; in [17], 0.937; in experiment [18], 0.578. For the same compound, the values for the odorant receptor activation in [19] and in experiment [20] were 0.964 and 1.01, respectively.
`CCCCCCCCCC=O` [decyl aldehyde]: the odorant receptor activation was found to be 1.07 in experiment [1]; 1.33 in [2]; 1.54 in experiment [3]; 1.36 in experiment [4]; 1.64 in experiment [5]; 1.01 in experiment [6]. Further, the odorant receptor activation in experiment [7] was found to be 1.43; in experiment [8], 1.49; in [9] it was 1.15; in [10] it was 1.93; in experiment [11], 1; in experiment [12] it was 1.04. Besides, the odorant receptor activation in experiment [13] is 1.29; in [14], 1.16; in experiment [15], 1; in experiment [16], 1.37; in experiment [17], 0.805; in [18], 1.06. The odorant receptor activation in [19] amounted to 1.36; in experiment [20], 1.25.
Regarding `CC1=CCC(C(C)(C)O)CC1` (stereo not given) [terpineol], the odorant receptor activation worked out at 0.763 in [1]; 1.03 in experiment [2]; 1.05 in experiment [3]; 0.973 in [4]; 1.01 in experiment [5]; 1.15 in [6]. Also, the odorant receptor activation came out at 0.908 in [7]; 0.913 in [8]; 1.06 in [9]; 1.06 in [10]; 0.92 in experiment [11]; 1.09 in experiment [12]. For the same compound, the odorant receptor activation is 1.17 in experiment [13]; 1.05 in experiment [14]; 0.891 in experiment [15]; 1.3 in [16]; 1.05 in experiment [17]; 1.09 in experiment [18]. Besides, the odorant receptor activation in experiment [19] was 1.15; in [20], 1.05.
Consider `c1ccc(Oc2ccccc2)cc1` [diphenyl ether], for which the odorant receptor activation in experiment [1] was found to be 1.2; in experiment [2] it was 0.964; in experiment [3] it was 0.899; in experiment [4], 1.12; in experiment [5] it was 1.27; in [6], 0.877. Moreover, the odorant receptor activation in [7] came out at 1.27; in [8], 1.44; in experiment [9] it was 0.78; in experiment [10], 1.36; in experiment [11], 0.813; in experiment [12], 1.06. The odorant receptor activation is 0.895 in experiment [13]; 0.855 in [14]; 0.792 in [15]; 1.17 in [16]; 0.641 in [17]; 1.06 in [18]. For the same compound, the odorant receptor activation in experiment [19] is 1.04; in [20], 1.1.
Regarding `COc1ccccc1O` [guaiacol], the odorant receptor activation is 0.728 and 1.03 in experiment [1]; 0.83 in experiment [2]; 0.824 in experiment [3]; 0.865 and 0.938 in [4]; 0.675 and 1.32 in experiment [5]; 0.936 in [6]. For the same compound, the odorant receptor activation in experiment [7] is 0.766 and 0.876; in experiment [8], 1.01 and 1.02; in experiment [9], 0.901; in experiment [10], 0.949; in [11], 1.24; in experiment [12], 1.04 and 1.06. Moreover, the odorant receptor activation in [13] was determined as 1.05; in experiment [14] it was 0.906; in [15], 0.928; in experiment [16], 0.756; in [17] it was 0.979; in experiment [18] it was 0.489. Also, the odorant receptor activation in [19] is 0.829; in [20], 1.84.
`CC(=O)OC1CC2CCC1(C)C2(C)C` (stereo not given) [isobornyl acetate]: the odorant receptor activation in experiment [1] is 0.802 and 0.96; in experiment [2] it was 0.895; in experiment [3], 0.798; in experiment [4] it was 1.08 and 0.792; in [5], 0.858 and 1.24; in experiment [6], 1.01. The odorant receptor activation in experiment [7] was 1.08 and 0.698; in experiment [8] it was 1.01 and 0.795; in [9], 0.684; in [10], 0.936; in [11] it was 0.438; in experiment [12] it was 1.46 and 0.973. Moreover, the odorant receptor activation is 0.866 in [13]; 0.887 in [14]; 0.809 in [15]; 0.684 in [16]; 0.579 in experiment [17]; 0.987 in [18]. The odorant receptor activation in experiment [19] was found to be 0.787; in experiment [20] it was 1.
Turning to `CC1CCC(C(C)C)C(O)C1` (single isomer, unassigned; (-)) [(-)-menthol], the odorant receptor activation in experiment [1] came to 3.68; in [2] it was 0.899; in experiment [3], 0.957; in [4], 0.758; in [5], 1.23; in experiment [6] it was 0.727. In addition, the odorant receptor activation turned out to be 0.973 in experiment [7]; 4.17 in experiment [8]; 9.45 in experiment [9]; 1.46 in [10]; 4.27 in experiment [11]; 1.54 in experiment [12]. For the same compound, the odorant receptor activation in experiment [13] is 1.28; in [14], 1.38; in experiment [15] it was 0.691; in [16], 0.894; in [17], 1.45; in experiment [18] it was 1.17. Moreover, the values for the odorant receptor activation in experiment [19] and in experiment [20] were 0.403 and 2.5, respectively.
